Consider 3 molecules from PMC7316369.

The chains behind the UniProt entries cited, without tags or fusion partners. Where a name states a change or a piece, a line headed by the entry shows the natural chain unless it says otherwise. Residues count along the entry.
UniProt Q8NBP7: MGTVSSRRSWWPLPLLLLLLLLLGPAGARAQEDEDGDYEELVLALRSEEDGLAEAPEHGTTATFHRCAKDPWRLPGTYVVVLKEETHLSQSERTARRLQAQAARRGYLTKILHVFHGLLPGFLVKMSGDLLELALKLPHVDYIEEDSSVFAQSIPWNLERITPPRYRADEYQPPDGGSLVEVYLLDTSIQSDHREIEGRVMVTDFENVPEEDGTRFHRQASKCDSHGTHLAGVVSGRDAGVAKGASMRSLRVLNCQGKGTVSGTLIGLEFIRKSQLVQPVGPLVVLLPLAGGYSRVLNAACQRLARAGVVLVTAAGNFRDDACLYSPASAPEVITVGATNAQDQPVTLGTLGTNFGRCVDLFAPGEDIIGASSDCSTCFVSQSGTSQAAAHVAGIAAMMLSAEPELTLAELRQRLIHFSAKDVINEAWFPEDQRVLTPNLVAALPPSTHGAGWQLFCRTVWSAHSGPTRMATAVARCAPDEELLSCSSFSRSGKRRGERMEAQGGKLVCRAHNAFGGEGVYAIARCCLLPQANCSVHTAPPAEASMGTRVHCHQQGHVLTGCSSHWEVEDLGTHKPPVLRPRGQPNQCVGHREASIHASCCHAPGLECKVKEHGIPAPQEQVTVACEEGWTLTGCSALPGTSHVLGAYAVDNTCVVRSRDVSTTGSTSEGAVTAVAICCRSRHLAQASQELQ
UniProt P01009, residues 25-418: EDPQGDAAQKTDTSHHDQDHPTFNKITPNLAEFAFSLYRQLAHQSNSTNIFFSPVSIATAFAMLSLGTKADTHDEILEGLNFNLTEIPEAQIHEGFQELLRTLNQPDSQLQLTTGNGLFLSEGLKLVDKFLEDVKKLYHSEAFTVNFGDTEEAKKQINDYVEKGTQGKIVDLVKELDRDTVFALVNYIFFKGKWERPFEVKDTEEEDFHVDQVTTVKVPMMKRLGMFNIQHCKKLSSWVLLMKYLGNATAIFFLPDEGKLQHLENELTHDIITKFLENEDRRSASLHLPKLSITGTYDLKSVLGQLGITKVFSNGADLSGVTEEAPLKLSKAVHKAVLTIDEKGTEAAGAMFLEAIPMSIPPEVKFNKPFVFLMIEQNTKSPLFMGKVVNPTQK
UniProt P02749, residues 20-345: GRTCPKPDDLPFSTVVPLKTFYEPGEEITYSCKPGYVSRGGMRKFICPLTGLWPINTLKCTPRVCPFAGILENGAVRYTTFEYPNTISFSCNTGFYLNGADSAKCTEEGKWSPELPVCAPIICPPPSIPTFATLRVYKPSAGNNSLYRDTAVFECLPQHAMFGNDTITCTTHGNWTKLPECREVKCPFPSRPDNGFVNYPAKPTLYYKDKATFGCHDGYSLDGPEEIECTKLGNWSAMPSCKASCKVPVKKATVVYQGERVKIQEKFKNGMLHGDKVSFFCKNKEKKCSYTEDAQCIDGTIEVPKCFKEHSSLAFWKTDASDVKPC

These are yes or no findings as the source states them, for the method shown. In cells and extracts the contact can be indirect. These calls come from enrichment with a bait or labelling near it, and not all partners need be listed.

Experiment [1] has as its target recombinant (r) PCSK9 carrier-free (CF) protein (UniProt Q8NBP7). Description: affinity purification with mass spectrometry; His-tagged rPCSK9 held on HisPur Ni-NTA resin at 4 °C; concentrated medium proteins at pH 5.0 passed three times; wash 25 mM imidazole, elution 250 mM imidazole; fractions 2-8 pooled, LC-MS/MS; only the target purified.
For experiment [2] the target is unchanged. As to the kind of experiment: affinity purification with mass spectrometry; His-tagged rPCSK9 held on HisPur Ni-NTA resin at 4 °C; concentrated medium proteins at pH 7.4 passed three times; wash 25 mM imidazole, elution 250 mM imidazole; fractions 2-8 pooled, LC-MS/MS; only the target purified.

As to “alpha-1-antitrypsin (from UniProt P01009 25-418)”, the binding entry in experiment [1] and in experiment [2] was “binds” in each case.

As to “apolipoprotein H (from UniProt P02749 20-345)”, in experiment [1], the binding entry was “binds”.

B1: alpha-1-microglobulin/bikunin precursor (protein, UniProt P02760 20-352)
chain: GPVPTPPDNIQVQENFNISRIYGKWYNLAIGSTCPWLKKIMDRMTVSTLVLGEGATEAEISMTSTRWRKGVCEETSGAYEKTDTDGKFLYHKSKWNITMESYVVHTNYDEYAIFLTKKFSRHHGPTITAKLYGRAPQLRETLLQDFRVVAQGVGIPEDSIFTMADRGECVPGEQEPEPILIPRVRRAVLPQEEEGSGGGQLVTEVTKKEDSCQLGYSAGPCMGMTSRYFYNGTSMACETFQYGGCMGNGNNFVTEKECLQTCRTVAACNLPIVRGPCRAFIQLWAFDAVKGKCVLFPYGGCQGNGNKFYSEKECREYCGVPGDGDEELLRFSN
As to B1, the binding result in experiment [1] and in experiment [2] was “binds” each time.
